Laboratory results as given in the supplement of paper PMC12819154, “High-throughput peptide-centric local stability assay extends protein–ligand identification to membrane proteins, tissues and bacteria” (Nature Structural & Molecular Biology, 2025).
Some of the results follow. Most values lie at the level of the controls, where differences are scatter.

Sequences of proteins named here, by UniProt entry; tags and fusion partners are left off. A change or cut given only in a name is not applied to a line headed by its entry.
UniProt Q9EQZ7: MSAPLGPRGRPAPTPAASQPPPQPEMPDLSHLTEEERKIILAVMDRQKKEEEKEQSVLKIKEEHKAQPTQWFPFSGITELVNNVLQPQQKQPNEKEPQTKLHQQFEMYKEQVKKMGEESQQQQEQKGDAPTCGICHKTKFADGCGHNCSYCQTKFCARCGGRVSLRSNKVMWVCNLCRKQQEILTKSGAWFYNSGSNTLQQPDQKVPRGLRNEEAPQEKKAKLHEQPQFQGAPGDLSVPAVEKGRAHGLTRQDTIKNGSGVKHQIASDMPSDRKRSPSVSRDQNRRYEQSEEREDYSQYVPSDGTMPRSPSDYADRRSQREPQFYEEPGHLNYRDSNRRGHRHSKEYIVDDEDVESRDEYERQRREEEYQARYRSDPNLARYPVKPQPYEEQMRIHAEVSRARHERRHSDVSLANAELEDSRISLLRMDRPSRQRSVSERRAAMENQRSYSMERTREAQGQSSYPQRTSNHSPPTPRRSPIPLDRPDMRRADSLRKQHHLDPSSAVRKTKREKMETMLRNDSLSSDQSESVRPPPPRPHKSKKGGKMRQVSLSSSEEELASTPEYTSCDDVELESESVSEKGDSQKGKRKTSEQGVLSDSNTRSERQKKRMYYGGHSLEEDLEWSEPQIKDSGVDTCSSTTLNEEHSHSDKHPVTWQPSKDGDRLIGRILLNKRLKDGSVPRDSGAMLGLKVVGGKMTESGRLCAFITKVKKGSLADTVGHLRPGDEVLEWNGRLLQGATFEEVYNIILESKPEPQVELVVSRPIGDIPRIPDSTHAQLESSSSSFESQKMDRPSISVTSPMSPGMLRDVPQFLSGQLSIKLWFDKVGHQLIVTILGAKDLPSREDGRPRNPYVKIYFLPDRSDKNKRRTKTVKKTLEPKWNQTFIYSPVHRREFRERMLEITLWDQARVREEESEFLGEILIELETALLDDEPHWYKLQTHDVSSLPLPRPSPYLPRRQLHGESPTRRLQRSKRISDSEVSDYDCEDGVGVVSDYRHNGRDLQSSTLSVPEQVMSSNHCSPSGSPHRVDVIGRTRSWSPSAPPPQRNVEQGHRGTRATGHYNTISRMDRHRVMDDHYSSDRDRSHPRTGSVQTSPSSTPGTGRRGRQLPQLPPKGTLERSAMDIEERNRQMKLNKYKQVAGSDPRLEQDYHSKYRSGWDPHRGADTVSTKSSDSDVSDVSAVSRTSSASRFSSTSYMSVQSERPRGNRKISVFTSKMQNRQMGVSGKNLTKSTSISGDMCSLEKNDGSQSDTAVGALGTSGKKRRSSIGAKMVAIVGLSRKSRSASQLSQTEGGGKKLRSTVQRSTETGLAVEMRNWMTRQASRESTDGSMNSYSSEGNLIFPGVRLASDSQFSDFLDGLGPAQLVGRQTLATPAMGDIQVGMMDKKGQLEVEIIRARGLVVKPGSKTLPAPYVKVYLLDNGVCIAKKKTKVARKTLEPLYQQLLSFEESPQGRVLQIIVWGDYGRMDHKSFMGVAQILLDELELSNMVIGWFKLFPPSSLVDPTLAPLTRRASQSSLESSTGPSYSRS
UniProt Q9EQQ2: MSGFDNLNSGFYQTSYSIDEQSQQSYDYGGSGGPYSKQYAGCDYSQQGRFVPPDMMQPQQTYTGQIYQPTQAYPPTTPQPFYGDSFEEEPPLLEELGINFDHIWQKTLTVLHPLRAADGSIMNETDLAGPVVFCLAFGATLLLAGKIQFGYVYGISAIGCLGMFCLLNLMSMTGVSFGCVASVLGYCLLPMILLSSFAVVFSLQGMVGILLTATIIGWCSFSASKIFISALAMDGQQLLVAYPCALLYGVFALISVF
UniProt Q9EQH4, whole entry: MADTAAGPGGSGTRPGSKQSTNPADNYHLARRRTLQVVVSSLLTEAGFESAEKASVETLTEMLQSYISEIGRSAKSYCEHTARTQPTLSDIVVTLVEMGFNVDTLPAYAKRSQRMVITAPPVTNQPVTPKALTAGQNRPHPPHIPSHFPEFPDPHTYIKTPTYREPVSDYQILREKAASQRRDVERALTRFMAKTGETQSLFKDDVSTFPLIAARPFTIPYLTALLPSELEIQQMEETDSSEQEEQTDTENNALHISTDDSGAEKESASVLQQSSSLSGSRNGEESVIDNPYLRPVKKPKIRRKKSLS
UniProt Q9EP52: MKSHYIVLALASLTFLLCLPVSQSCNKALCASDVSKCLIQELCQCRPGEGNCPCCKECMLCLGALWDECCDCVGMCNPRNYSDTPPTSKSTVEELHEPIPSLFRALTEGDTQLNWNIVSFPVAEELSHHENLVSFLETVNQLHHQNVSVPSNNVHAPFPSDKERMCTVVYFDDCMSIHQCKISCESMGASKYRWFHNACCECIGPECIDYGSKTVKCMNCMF
UniProt Q9DCA2, whole entry: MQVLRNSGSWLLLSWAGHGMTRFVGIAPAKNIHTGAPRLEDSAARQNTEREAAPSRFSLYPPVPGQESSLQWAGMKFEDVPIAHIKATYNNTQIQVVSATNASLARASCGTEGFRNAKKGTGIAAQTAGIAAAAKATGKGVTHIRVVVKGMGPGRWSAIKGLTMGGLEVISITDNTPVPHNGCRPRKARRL
UniProt Q9DC60: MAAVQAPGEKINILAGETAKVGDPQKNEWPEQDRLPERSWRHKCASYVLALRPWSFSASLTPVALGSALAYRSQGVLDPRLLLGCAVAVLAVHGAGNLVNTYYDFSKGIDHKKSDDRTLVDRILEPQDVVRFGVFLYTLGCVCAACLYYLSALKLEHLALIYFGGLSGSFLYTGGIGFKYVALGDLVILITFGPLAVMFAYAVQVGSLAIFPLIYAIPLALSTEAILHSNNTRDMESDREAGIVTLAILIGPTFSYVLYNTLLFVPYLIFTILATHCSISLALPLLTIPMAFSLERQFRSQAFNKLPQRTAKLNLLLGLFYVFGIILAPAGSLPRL
UniProt Q9DD18: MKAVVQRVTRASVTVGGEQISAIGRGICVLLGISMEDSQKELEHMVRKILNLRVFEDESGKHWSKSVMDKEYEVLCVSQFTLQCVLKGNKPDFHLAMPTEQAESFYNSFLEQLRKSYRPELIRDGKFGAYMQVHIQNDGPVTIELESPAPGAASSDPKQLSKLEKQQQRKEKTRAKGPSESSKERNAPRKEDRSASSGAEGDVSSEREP
UniProt Q9DBG6: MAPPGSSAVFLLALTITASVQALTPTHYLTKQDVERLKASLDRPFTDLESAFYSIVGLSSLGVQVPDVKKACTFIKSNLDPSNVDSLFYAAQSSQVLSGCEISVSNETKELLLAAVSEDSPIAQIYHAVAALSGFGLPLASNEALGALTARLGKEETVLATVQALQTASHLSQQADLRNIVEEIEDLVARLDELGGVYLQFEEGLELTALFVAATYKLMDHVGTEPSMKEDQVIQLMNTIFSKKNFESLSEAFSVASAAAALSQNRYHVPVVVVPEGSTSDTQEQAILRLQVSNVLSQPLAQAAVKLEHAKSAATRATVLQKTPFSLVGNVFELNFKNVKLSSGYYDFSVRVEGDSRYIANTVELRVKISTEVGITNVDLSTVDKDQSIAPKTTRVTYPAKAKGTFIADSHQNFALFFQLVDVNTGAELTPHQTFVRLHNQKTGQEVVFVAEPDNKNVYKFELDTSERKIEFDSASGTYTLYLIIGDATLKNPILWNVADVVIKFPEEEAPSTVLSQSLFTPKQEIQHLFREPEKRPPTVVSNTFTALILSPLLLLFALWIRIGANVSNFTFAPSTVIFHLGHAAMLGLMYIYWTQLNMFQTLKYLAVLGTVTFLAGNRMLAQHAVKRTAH
UniProt Q9DCT8: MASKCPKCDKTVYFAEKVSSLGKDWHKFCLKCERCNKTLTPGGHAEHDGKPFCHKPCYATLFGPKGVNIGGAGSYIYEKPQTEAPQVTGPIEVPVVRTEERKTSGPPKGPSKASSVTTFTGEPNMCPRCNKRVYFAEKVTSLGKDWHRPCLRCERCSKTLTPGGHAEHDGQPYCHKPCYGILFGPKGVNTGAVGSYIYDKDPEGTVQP
UniProt Q9DC04: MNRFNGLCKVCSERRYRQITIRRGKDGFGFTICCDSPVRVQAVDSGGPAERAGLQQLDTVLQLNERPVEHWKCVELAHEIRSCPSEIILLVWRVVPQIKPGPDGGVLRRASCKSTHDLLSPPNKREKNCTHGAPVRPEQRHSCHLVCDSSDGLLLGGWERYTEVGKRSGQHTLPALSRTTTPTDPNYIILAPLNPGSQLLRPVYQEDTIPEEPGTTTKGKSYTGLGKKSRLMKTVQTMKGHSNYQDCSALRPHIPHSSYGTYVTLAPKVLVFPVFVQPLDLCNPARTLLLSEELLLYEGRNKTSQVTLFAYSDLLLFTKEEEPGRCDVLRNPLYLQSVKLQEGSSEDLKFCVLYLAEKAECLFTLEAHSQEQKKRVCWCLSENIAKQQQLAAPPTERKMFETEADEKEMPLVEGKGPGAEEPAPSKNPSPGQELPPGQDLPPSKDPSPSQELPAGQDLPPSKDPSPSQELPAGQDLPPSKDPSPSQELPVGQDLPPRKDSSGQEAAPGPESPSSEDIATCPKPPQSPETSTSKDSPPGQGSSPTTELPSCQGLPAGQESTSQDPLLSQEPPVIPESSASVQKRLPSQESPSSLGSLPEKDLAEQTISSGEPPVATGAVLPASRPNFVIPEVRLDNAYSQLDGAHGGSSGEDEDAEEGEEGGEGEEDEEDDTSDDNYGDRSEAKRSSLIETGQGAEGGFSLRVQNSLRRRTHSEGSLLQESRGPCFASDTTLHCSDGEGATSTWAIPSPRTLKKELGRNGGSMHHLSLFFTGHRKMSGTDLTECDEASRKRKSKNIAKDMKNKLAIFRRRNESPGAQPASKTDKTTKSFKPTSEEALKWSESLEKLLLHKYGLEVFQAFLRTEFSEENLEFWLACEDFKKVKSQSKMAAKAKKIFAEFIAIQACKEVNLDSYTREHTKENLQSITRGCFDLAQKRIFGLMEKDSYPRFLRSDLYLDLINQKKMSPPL
UniProt Q9DC70, whole entry: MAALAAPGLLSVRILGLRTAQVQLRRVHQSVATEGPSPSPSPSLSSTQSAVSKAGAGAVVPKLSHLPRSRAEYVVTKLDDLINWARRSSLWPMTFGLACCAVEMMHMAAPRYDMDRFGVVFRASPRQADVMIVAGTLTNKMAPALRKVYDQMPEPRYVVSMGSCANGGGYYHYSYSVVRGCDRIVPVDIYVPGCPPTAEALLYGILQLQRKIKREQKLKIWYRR
UniProt Q9DBE0: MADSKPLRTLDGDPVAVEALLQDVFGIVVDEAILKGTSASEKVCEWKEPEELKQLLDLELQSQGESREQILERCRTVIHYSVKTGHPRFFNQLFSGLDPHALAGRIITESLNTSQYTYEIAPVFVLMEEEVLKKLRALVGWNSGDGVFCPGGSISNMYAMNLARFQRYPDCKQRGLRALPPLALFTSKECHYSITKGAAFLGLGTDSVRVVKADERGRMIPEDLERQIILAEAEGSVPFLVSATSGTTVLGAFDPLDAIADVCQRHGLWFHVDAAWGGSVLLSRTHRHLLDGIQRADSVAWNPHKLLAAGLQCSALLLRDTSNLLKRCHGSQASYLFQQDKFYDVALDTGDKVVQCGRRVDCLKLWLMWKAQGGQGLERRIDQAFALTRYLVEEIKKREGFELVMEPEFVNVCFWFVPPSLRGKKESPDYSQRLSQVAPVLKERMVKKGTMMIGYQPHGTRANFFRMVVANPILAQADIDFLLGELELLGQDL
UniProt Q9DCV4: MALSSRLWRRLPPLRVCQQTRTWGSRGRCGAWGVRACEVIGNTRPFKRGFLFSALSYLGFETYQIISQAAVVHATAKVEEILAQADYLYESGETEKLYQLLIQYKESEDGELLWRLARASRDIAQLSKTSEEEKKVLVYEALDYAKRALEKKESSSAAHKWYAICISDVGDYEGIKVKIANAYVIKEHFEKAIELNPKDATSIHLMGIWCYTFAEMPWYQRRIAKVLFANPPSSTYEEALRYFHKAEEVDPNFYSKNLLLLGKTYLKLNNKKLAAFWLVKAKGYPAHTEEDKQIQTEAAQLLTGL
UniProt Q9DC48: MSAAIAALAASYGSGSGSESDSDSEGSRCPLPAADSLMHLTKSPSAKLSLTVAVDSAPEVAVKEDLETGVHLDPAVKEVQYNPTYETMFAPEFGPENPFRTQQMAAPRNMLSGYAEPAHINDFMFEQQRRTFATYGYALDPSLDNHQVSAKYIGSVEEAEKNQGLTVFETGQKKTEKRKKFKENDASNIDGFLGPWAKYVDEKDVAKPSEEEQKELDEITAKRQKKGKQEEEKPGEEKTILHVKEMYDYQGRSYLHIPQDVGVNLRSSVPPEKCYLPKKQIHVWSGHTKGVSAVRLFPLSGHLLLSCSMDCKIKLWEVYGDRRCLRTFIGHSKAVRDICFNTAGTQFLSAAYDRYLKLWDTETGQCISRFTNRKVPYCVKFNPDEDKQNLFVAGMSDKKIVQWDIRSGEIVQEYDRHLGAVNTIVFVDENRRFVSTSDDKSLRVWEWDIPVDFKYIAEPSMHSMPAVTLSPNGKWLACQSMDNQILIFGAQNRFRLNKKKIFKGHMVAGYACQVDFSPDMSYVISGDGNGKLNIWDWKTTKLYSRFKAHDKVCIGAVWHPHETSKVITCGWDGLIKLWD

These targets were tested with CN[C@@H]1C[C@H]2O[C@@](C)([C@@H]1OC)n1c3ccccc3c3c4c(c5c6ccccc6n2c5c31)C(=O)NC4 [staurosporine] (assay: log2 fold change of tryptic peptide abundance, ligand vs vehicle (limited proteolysis) (log2 ratio); higher = more trypsin-susceptible (destabilized)). Settings: ligand concentration: 20 uM; sample: mouse liver crude lysate; replicate design: treated separately.
In the case of “UniProt Q9EQZ7 (peptide sequence: KEEEKEQSVLK, peptide start residue: 49)”, the log2 fold change is reported as 0.0236.
In the case of “UniProt Q9EQH3 (peptide sequence: KDILKDLVEMCR, peptide start residue: 127)”, the log2 fold change is reported as 0.429.
“UniProt Q9EQQ2 (peptide sequence: TLTVLHPLR, peptide start residue: 107)” was tested, and the log2 fold change was 0.264.
For “UniProt Q9EQH4 (peptide sequence: TPTYREPVSDYQILR, peptide start residue: 160)”, the log2 fold change was -0.258.
“UniProt Q9EP52 (peptide sequence: STVEELHEPIPSLFR, peptide start residue: 90)” showed a log2 fold change of -0.302.
With “UniProt Q9DCA2 (peptide sequence: KGTGIAAQTAGIAAAAK, peptide start residue: 119)” the log2 fold change was -0.12.
With “UniProt Q9EQJ9 (peptide sequence: IALEGEIGRDVCSSYR, peptide start residue: 975)” the log2 fold change was 0.426.
For “UniProt Q9DC60 (peptide sequence: VGDPQKNEWPEQDRLPER, peptide start residue: 21)”, the log2 fold change was 0.285.
“UniProt Q9DD18 (peptide sequence: AKGPSESSK, peptide start residue: 175)” showed a log2 fold change of -0.201.
For “UniProt Q9DAZ9 (peptide sequence: VCKQCHTILTR, peptide start residue: 49)”, the log2 fold change was 0.622.
For “UniProt Q9DBF7 (peptide sequence: ELLQMSLEKK, peptide start residue: 165)”, the log2 fold change was 0.494.
“UniProt Q9DBG6 (peptide sequence: YIANTVELR, peptide start residue: 358)” showed a log2 fold change of -0.1.
Target “UniProt Q9DCN2 (peptide sequence: MSQYLENMK, peptide start residue: 127)” has a log2 fold change of -0.639.
Work on “UniProt Q9DC71 (peptide sequence: QEQLMNK, peptide start residue: 109)” yielded a log2 fold change of -0.361.
Target “UniProt Q9ERF3 (peptide sequence: LWDLENGK, peptide start residue: 90)” has a log2 fold change of 0.156.
“UniProt Q9DCT8 (peptide sequence: RVYFAEK, peptide start residue: 132)” was tested, and the log2 fold change was -0.368.
“UniProt Q9DC04 (peptide sequence: KMSGTDLTECDEASR, peptide start residue: 774)” showed a log2 fold change of -0.366.
Target “UniProt Q9EP72 (peptide sequence: VLVDGEEHVGFLK, peptide start residue: 66)” has a log2 fold change of -0.171.
With “UniProt Q9EP82 (peptide sequence: KACPGQSALSC, peptide start residue: 403)” the log2 fold change was 0.353.
Target “UniProt Q9DC70 (peptide sequence: LDDLINWAR, peptide start residue: 78)” has a log2 fold change of -0.0576.
“UniProt Q9DBE0 (peptide sequence: DTSNLLKR, peptide start residue: 320)” gave a log2 fold change of 0.47.
In the case of “UniProt Q9DBT5 (peptide sequence: SLPGNAPCLK, peptide start residue: 45)”, the log2 fold change is reported as 0.063.
Target “UniProt Q9DBI0 (peptide sequence: CFQLPCSTR, peptide start residue: 4)” has a log2 fold change of 0.245.
For “UniProt Q9DB98 (peptide sequence: RYNSQFNPQLAR, peptide start residue: 239)”, the log2 fold change was -0.425.
Work on “UniProt Q9DBG1 (peptide sequence: EVTGVVPFGKVPQHK, peptide start residue: 366)” yielded a log2 fold change of -0.185.
Target “UniProt Q9DCV4 (peptide sequence: IANAYVIKEHFEK, peptide start residue: 179)” has a log2 fold change of 0.121.
Target “UniProt Q9DC48 (peptide sequence: CPLPAADSLMHLTK, peptide start residue: 29)” has a log2 fold change of -0.259.
In the case of “UniProt Q9DCE9 (peptide sequence: ALQFQDLIK, peptide start residue: 345)”, the log2 fold change is reported as 0.2.
